Data source: PubChem BioAssay AID1159584 (Peter MacCallum Cancer Centre, 2016)

Test: 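Genes whose loss is lethal only together with E-cadherin loss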 (primary screen)
Cells: human MCF10A breast epithelial cells, parental and CDH1-null
Knock-down reagent: siRNA against human genes
Measurement: 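Cell viability by CellTiter-Glo ATP luminescence, each line scaled to the mean of mock wells across plates, then CDH1-null over parental ratio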
Scale: CDH1-null / parental viability ratio: higher = CDH1-null cells survive relatively better than parental
In all, the deposit lists about 18,000 reagents; shown is an unselected part. Not all columns of the deposit are shown. Not stated in the record: the amount of reagent, the time to read-out.

| Target gene | CDH1-null / parental viability ratio |
| --- | --- |
| ZNF132 (zinc finger protein 132) | 1.06 |
| KL (klotho) | 0.84 |
| MAST4 | 1.2 |
| RBP3 (retinol binding protein 3) | 1.08 |
| COX4I2 (cytochrome c oxidase subunit 4I2) | 0.98 |
| RNF175 (ring finger protein 175) | 0.91 |
| PATL1 (PAT1 homolog 1, processing body mRNA decay factor) | 1.15 |
| PLA2G4C (phospholipase A2 group IVC) | 1.09 |
| MYL1 (myosin light chain 1) | 0.78 |
| SDR42E1 (short chain dehydrogenase/reductase family 42E, member 1) | 0.92 |
| SNHG29 (small nucleolar RNA host gene 29) | 0.92 |
| FCGR2A (Fc gamma receptor IIa) | 0.95 |
| PLEKHA1 (pleckstrin homology domain containing A1) | 0.93 |
| KRTCAP2 (keratinocyte associated protein 2) | 0.69 |
| DNAJC10 (DnaJ heat shock protein family (Hsp40) member C10) | 0.95 |
| SVEP1 | 0.84 |
| PLK1 (polo like kinase 1) | 0.66 |
| OXR1 (oxidation resistance 1) | 1.08 |
| ALDH3B1 (aldehyde dehydrogenase 3 family member B1) | 0.94 |
| CIC (capicua transcriptional repressor) | 1.17 |
| ZBTB7B (zinc finger and BTB domain containing 7B) | 1.11 |
| CHEK2 (checkpoint kinase 2) | 1.02 |
| MYOM3 (myomesin 3) | 0.87 |
| WASF2 (WASP family member 2) | 1.08 |
| ERMP1 (endoplasmic reticulum metallopeptidase 1) | 1.31 |
| MTCH1 | 1.35 |
| KRTAP6-2 (keratin associated protein 6-2) | 0.91 |
| C2orf69 (chromosome 2 open reading frame 69) | 0.95 |
| N4BP2L1 (NEDD4 binding protein 2 like 1) | 1.16 |
| OR5B21 (olfactory receptor family 5 subfamily B member 21) | 0.84 |
| SRFBP1 (serum response factor binding protein 1) | 1.22 |

Next part; the last 7 above are carried over.
| Target gene | CDH1-null / parental viability ratio |
| --- | --- |
| ERMP1 (endoplasmic reticulum metallopeptidase 1) | 1.31 |
| MTCH1 | 1.35 |
| KRTAP6-2 (keratin associated protein 6-2) | 0.91 |
| C2orf69 (chromosome 2 open reading frame 69) | 0.95 |
| N4BP2L1 (NEDD4 binding protein 2 like 1) | 1.16 |
| OR5B21 (olfactory receptor family 5 subfamily B member 21) | 0.84 |
| SRFBP1 (serum response factor binding protein 1) | 1.22 |
| MSMB (microseminoprotein beta) | 0.92 |
| CAMK2B (calcium/calmodulin dependent protein kinase II beta) | 0.78 |
| YIF1A | 0.57 |
| ZNF655 (zinc finger protein 655) | 1.04 |
| REXO2 (RNA exonuclease 2) | 1.15 |
| TMEM219 (transmembrane protein 219) | 1.39 |
| TARS2 (threonyl-tRNA synthetase 2, mitochondrial) | 0.9 |
| CRLF2 (cytokine receptor like factor 2) | 0.89 |
| ANKRD13B (ankyrin repeat domain 13B) | 0.96 |
| HDAC6 (histone deacetylase 6) | 0.86 |
| CDK15 (cyclin dependent kinase 15) | 0.84 |
| LGR5 (leucine rich repeat containing G protein-coupled receptor 5) | 1.41 |
| ACBD6 (acyl-CoA binding domain containing 6) | 1.22 |
| PHC2 (polyhomeotic homolog 2) | 0.75 |
| IL17B (interleukin 17B) | 0.88 |
| C20orf144 (chromosome 20 open reading frame 144) | 0.71 |
| LYSMD1 (LysM domain containing 1) | 1.11 |
| SLC25A34 | 1.19 |
| RNF115 (ring finger protein 115) | 0.87 |
| WDR35 (WD repeat domain 35) | 0.91 |
| CTSL3P (cathepsin L family member 3, pseudogene) | 1.05 |
| COL18A1-AS1 (COL18A1 antisense RNA 1) | 1.39 |
| RHEX (regulator of hemoglobinization and erythroid cell expansion) | 0.92 |
| THEM6 (thioesterase superfamily member 6) | 1.02 |
| RPS8 (ribosomal protein S8) | 1.27 |
| COL26A1 (collagen type XXVI alpha 1 chain) | 1.1 |
| DNASE1 (deoxyribonuclease 1) | 0.91 |
| FAM13C (family with sequence similarity 13 member C) | 1.05 |
| AQP8 (aquaporin 8) | 1.18 |
| WSB2 (WD repeat and SOCS box containing 2) | 0.86 |
| R3HDM4 (R3H domain containing 4) | 0.79 |
| SFRP5 (secreted frizzled related protein 5) | 0.95 |
| HPSE (heparanase) | 1.09 |
| EIF4EBP2 | 1.14 |
| ERLIN1 (ER lipid raft associated 1) | 1.01 |
| FREM2 (FRAS1 related extracellular matrix 2) | 1.12 |
| ZMIZ2 (zinc finger MIZ-type containing 2) | 0.8 |
